The record followed here is the supplement of paper PMC11237882.

B1: unnamed (peptide)
chain: RAHIGVIPHFFMAVLYVFLHAILIMVQATTLNVAFN
B2: unnamed (peptide)
chain: LGLISGISIIVGTIIGSGIFVSPKSVLSNTEAVGPC
B3: unnamed (peptide)
chain: NPVQVSINQLTAAIYDLLRLHANSGRSPTDCAQSSK
B4: unnamed (peptide)
chain: SMFLPPTTVAGATLYSVAMYGGLVLFSMFLLYDTQK
B5: unnamed (peptide)
chain: ADVVQKLPEKKTQMYHALLKHLGTLAGSQIRNMASL
B6: unnamed (peptide)
chain: PYYYFQEGWNIFDGFIVTLSLVELGLANVVGLSVLR
B7: unnamed (peptide)
chain: VMGEQFSYASDCASFFSPGIWMGLLTSLFMLFIFTY
B8: unnamed (peptide)
chain: MDPKLGRMAASLLAVLLLLLERGMFSSPSPPPALLE
B9: unnamed (peptide)
chain: ATSRFTMNFLILYSFIPALVILGIVVFKIRDHLISR
B10: unnamed (peptide)
chain: TIITPKMLVNFVTEKNIISYPECMTQLYFFLIFAIA
B11: unnamed (peptide)
chain: EYFGERCGEKSMKTHSMIDSSLSKIALAAIAAFMSA
B12: unnamed (peptide)
chain: FFAMMLLMGTLYVHMFLFARLHVKRIAALPPADGVA
B13: unnamed (peptide)
chain: INYLNRALDIFNTSIVTPIYYVFFTTSVLTCSAILI
B14: unnamed (peptide)
chain: HVMIMSEAQDLRNYCINTAALFFAFVTMLLYILHAF
B15: unnamed (peptide)
chain: EETPPAGKEGDLPPLWWHIVPATAVGVRAKSSAAPA
B16: unnamed (peptide)
chain: KNILEKQFSKSSRAAHQDFANIMKMLRSLIQDGYMA
B17: unnamed (peptide)
chain: LPLRLFTLWRGPVVVAISLATFFFLYSFVRDVIHPY
B18: unnamed (peptide)
chain: VTGKNMKMHSFIGQSGVITDLYLFSCIISFSSFIYY
B19: unnamed (peptide)
chain: SLPLILTLLELCVTISTIAMWCNANCCNSREEISSP
B20: unnamed (peptide)
chain: IPAFKYYEACTFLVFLSNFIIQMLVTNRPPALAITY
B21: unnamed (peptide)
chain: KEPYFQPHSCLSHLLTSSAAILTVLCVVMIFLVSVI
B22: unnamed (peptide)
chain: KMSSLSSRGIQFLEPSTHFLSIVIVIFHCFAIQPLI
B23: unnamed (peptide)
chain: REEEEEEFNFKVIPPPPEFSNDPEPPAPALQYLGRQ
B24: unnamed (peptide)
chain: DFNPDPRSRYTFWTFVVGSTLVWLSMYGVNQAQVQR
B25: unnamed (peptide)
chain: QTFSIMAVLWALVSVSFLVLSCFPSLFPPGHGPLVS
B26: unnamed (peptide)
chain: LGRTLSRWVWISLYYVAFYVVMTGLFALCLYVLMQT
B27: unnamed (peptide)
chain: TSPIADFPAPPPYSAVTPPPDAFSRGVSSPIAGPAQ
B28: unnamed (peptide)
chain: LLFFTALMITVPIGLYFTTKSYIFEGALGMSNRDSY
B29: unnamed (peptide)
chain: MPSSVSWGILLLAGLCCLVPVSLAEDPQGDAAQKTD
B30: unnamed (peptide)
chain: VLTGLGFALCYSPAIAMVVKYFSRRKALAYGIAMSA
B31: unnamed (peptide)
chain: KNVTGFFQSLKSILTNPLYVIFLLLTLLQVSSFIGS
B32: unnamed (peptide)
chain: DLEAEKLVMFQRRYYKPGLLMMCFILPTLVPWYFWG
B33: unnamed (peptide)
chain: MRPVSVWQWSPWGLLLCLLCSSCLGSPSPSTGPEKK
B34: unnamed (peptide)
chain: QAASNGAVDAIGLATNVAANLIAFLAVLAFINAALS
B35: unnamed (peptide)
chain: LFLFFYIAIVLGNLLIVVTVQAHAHLLQSPMYYFLG
B36: unnamed (peptide)
chain: MGNRAHRPGRAAASATPSRLRSRTRAVHLPHRAQQC
B37: unnamed (peptide)
chain: PPQAFSKTKVRDLGRGGLYAFSKEEKVSEAQRVEAY
B38: unnamed (peptide)
chain: QYPAKGGPQQPHNKGCVAPTAGLAALLLAVAAGVLL
B39: unnamed (peptide)
chain: MQRLCVYVLIFALALAAFSEASWKPRSQQPDAPLGT
B40: unnamed (peptide)
chain: YFVFCLQIIISIGLMFYVVHRAQVELNAAIVTCEME
B41: unnamed (peptide)
chain: VKRFPYGPYIEDRFFLVLQNEFSVFFILSFMYIELI
B42: unnamed (peptide)
chain: TLVFAVFMGVWVTLFLEFWKRRQAELEYEWDTVELQ
B43: unnamed (peptide)
chain: SFFTGDVNYLFEGVCYGPLVLITCASLVICSISSYF
B44: unnamed (peptide)
chain: GLAGLFAGVFPRMAAISLGGFIFLGAYDRTHSLLLE

The list shows a part of the results. Values are worked out from sequencing counts and are noisy.

This experiment concerns the target T1, Homer1 EVH1 domain.
T1 chain: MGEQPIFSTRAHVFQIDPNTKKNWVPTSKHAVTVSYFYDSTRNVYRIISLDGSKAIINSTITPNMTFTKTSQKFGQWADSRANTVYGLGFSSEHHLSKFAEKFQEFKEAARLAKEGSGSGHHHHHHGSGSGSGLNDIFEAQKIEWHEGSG
Description: enrichment score (AUC of log2 frequency ratio across FACS sorting rounds) (log2 AUC); higher = stronger enrichment for Homer1 EVH1 binding.
Take B1: the enrichment score was 1.66.

Consider B2, for which the enrichment score stood at 1.46.

As to B3, the enrichment score is -0.634. Turning to B4, the enrichment score was 3.56. As for B5, the figure is 2.46. On to B6, for which the enrichment score is -2.48. As for B7, the figure is 2.97. The result for B8 reads 1.84; that for B9, 2.66. The result for B10 reads -0.209.

Take B11: the enrichment score was -1.98. The result for B12 reads 2.29; that for B13, 2.51. Regarding B14, the enrichment score turned out to be 4.55. As to B15, the enrichment score came out at 0.424. Turning to B16, the enrichment score is -0.283. The result for B17 reads 0.584; that for B18, -2.33. The result for B19 reads 1.99; that for B20, 0.566. The result for B21 reads 2.09. Regarding B22, the enrichment score stood at 1.25. As for B23, the figure is 4.84; as for B24, 4.18. B25: the enrichment score was determined as 3.07. The result for B26 reads 0.695; that for B27, -2.24. As for B28, the figure is 1.62; as for B29, 3.94.

As for B30, the enrichment score was 0.0737. For B31, the enrichment score came to 1.54. As for B32, the figure is 3.23. The result for B33 reads 0.315; that for B34, 5.05. Turning to B35, the enrichment score was -2.7. As for B36, the figure is 1.62; as for B37, 4.5. As for B38, the figure is 1.47; as for B39, 1.97; as for B40, 1.16. The result for B41 reads 0.0269; that for B42, 3.84; that for B43, -2.29. Regarding B44, the enrichment score is -1.02.
